The record followed here is PMC2394298.

Construct, isoform or probe ends are uncertain for at least one entry. At least one result comes from cells or an extract, where the contact may be indirect.

This data set concerns NF-kB p50 (heterodimer subunit) + NF-kB p65 (RelA). The data set can be described thus: EMSA supershift. Particulars: NS-398-treated (50 uM, 96 h) HT-29 nuclear extract, absent in untreated control; 1 mM MgCl2, 1 mM KCl, 7.5% Ficoll, 8.5 mM HEPES (pH not given), 1 mM DTT, 1 mg/ml BSA, 1-4 ug poly(dI-dC), 1-4 ug nuclear extract, 20 ul, room temperature; protein in an extract; label: 32P 5' end label. In general terms: Mobility shift assays separate free from complexed probe on a gel.

As to “AGTTGAGGGGACTTTCCCAGGC (double strand) [NF-kB consensus oligonucleotide (Promega)]”, the binding result was “binds”.
